Paper PMC11311407
No constants are given. Whether binding was seen depends on the method and setting. Binding seen in cells or lysates may run through a third protein. Some binding calls cover weakened binding; strength is not graded here.

Amino acid sequences for entries named in this document (tags omitted).
UniProt Q63HN8: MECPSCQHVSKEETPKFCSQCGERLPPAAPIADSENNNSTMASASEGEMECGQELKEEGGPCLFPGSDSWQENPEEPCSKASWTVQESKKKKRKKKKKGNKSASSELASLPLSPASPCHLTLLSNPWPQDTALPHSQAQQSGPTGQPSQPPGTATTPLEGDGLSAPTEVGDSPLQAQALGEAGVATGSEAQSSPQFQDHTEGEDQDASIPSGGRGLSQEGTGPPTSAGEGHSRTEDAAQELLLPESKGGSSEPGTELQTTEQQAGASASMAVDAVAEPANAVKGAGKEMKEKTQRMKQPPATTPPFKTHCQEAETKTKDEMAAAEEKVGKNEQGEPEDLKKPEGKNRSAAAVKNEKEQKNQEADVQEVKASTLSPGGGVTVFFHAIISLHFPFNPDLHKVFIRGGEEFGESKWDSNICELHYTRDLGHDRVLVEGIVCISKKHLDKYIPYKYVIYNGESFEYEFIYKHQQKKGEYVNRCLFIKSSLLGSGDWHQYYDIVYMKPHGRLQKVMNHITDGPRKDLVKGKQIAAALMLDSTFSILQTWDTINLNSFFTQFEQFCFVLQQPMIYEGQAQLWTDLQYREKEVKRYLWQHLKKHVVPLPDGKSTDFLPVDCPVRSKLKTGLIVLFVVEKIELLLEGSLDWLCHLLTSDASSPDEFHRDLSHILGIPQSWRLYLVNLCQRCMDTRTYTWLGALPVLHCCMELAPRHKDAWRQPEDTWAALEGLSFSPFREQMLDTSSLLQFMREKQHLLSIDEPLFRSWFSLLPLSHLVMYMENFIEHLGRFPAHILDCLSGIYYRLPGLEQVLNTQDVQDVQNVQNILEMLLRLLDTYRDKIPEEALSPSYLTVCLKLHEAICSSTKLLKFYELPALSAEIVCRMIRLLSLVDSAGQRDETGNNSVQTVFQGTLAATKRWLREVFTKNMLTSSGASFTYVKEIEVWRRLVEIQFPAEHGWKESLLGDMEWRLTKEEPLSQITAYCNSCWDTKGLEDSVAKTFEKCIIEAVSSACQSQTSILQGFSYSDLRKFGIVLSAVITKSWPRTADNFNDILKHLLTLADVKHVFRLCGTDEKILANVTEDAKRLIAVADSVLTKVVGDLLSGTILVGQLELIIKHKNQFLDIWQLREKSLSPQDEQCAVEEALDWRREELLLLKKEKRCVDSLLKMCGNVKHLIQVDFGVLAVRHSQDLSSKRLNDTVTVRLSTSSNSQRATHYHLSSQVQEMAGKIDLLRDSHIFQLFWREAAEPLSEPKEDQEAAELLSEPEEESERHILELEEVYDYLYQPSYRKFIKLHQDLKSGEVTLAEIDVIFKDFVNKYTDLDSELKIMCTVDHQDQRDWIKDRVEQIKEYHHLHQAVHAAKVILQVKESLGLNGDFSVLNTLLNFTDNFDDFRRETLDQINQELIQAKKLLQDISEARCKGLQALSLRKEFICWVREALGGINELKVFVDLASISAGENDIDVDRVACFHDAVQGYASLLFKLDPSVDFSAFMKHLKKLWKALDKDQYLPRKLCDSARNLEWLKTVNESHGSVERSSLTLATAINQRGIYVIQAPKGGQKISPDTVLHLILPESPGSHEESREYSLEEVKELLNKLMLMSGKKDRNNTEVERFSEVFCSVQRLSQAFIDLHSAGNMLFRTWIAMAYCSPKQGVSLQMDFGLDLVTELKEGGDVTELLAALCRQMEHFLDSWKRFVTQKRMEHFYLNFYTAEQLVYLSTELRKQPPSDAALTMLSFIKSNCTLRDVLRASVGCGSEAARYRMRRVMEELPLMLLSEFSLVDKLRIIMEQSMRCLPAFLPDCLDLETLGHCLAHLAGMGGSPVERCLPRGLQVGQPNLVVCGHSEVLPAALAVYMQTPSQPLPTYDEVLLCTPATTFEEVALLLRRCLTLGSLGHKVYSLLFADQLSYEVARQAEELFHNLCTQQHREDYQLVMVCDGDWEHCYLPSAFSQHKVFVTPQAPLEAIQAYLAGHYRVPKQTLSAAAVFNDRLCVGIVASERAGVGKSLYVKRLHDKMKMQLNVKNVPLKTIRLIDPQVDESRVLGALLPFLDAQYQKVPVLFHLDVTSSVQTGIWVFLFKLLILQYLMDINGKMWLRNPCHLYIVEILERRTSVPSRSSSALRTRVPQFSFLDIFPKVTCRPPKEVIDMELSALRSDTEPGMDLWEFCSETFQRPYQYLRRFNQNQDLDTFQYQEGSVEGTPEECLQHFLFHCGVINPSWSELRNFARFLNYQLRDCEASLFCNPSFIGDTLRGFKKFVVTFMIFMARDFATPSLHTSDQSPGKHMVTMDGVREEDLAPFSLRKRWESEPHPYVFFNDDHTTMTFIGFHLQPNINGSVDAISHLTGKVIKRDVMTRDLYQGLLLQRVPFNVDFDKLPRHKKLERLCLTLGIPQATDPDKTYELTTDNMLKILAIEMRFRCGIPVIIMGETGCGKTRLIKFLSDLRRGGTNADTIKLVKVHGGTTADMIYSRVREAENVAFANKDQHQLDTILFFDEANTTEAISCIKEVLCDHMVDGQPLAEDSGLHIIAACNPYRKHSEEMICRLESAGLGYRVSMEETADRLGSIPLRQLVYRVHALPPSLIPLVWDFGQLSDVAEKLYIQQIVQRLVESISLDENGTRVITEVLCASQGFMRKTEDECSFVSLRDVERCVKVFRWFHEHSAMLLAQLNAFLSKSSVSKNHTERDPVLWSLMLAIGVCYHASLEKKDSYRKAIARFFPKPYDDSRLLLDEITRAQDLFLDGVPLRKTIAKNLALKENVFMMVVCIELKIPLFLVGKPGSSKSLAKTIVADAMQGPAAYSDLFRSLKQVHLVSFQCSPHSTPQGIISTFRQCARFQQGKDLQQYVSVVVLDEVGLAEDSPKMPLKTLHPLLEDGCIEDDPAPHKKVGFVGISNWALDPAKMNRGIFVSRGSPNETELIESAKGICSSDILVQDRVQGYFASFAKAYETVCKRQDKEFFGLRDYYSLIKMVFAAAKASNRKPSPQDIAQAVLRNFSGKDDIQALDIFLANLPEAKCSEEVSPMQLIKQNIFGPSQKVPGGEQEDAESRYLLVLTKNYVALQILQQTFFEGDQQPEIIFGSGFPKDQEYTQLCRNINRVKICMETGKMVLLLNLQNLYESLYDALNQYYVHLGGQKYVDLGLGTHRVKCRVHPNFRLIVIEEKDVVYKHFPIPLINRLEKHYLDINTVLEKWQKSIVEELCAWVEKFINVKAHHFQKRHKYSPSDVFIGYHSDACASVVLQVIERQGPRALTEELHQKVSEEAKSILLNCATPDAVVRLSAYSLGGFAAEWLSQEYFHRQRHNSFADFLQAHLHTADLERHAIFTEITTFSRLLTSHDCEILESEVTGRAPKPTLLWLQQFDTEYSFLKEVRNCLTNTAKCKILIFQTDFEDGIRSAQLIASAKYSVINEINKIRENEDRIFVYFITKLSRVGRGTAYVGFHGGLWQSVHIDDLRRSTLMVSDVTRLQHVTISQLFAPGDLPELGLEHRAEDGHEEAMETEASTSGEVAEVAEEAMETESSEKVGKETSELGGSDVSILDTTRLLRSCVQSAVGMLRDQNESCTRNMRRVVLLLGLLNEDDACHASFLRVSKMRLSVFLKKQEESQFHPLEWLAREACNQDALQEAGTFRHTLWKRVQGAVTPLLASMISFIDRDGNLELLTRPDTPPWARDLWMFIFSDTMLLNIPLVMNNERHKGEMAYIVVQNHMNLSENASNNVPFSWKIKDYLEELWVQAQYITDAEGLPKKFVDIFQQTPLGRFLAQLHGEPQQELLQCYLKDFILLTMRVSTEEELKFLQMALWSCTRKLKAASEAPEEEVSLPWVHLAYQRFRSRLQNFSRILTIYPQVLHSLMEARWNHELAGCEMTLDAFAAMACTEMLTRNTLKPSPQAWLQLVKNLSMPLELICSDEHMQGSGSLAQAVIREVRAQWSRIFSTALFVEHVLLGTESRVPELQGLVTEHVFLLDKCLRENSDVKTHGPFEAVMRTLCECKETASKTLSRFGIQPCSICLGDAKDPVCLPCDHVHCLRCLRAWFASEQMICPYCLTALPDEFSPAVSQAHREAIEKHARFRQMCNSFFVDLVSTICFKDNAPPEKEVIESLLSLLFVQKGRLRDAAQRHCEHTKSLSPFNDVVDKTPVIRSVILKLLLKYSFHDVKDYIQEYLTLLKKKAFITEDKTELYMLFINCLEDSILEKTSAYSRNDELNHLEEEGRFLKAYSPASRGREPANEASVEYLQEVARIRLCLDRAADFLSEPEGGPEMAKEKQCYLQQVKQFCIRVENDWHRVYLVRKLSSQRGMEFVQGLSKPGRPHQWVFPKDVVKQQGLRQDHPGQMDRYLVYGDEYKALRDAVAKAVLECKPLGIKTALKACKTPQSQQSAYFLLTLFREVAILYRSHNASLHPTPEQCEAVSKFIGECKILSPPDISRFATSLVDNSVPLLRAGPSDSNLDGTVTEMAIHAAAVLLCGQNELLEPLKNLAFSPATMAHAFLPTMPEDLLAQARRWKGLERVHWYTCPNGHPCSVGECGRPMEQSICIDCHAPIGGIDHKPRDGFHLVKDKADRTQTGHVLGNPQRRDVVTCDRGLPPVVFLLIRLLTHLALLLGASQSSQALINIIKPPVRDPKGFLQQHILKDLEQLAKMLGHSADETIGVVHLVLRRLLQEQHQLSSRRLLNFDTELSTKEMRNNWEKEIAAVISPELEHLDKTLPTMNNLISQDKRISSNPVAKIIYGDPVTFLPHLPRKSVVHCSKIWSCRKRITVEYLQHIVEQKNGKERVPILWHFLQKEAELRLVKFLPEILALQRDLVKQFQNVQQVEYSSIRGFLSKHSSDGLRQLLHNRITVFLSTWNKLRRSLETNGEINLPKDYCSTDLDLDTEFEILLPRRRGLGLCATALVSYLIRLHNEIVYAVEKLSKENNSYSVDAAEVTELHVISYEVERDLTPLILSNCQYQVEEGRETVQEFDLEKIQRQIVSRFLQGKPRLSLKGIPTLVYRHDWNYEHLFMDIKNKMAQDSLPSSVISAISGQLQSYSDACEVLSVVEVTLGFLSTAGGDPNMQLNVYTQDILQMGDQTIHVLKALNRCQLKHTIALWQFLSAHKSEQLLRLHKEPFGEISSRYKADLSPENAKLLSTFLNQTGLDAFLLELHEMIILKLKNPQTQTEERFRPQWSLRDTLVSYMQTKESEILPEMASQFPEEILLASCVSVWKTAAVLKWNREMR

Biological target: T1, Zinc Finger and BTB Domain Containing 20 (ZBTB20) (human (endogenous in SPCA1 and PC9)) (UniProt Q9HC78)
T1 sequence: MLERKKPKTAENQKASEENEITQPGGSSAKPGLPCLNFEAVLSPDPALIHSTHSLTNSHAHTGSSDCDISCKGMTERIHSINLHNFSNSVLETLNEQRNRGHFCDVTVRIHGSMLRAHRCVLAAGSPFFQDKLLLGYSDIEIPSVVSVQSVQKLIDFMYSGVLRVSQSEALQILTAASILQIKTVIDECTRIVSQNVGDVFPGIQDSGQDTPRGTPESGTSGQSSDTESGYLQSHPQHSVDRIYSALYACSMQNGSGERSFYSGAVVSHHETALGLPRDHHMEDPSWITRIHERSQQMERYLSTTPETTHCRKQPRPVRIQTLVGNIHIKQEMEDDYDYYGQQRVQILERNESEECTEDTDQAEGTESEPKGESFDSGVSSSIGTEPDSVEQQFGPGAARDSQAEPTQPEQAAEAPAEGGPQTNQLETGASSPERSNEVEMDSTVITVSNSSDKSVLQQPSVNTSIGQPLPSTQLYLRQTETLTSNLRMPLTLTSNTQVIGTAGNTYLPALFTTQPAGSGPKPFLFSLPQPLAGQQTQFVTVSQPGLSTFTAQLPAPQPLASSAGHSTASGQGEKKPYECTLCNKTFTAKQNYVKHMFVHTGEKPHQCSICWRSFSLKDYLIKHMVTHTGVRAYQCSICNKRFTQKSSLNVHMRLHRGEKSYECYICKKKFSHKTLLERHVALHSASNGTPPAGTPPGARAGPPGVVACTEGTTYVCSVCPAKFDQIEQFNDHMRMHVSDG
Experiment: co-IP; RIPA lysates of SPCA1 and PC9 cells incubated overnight at 4 °C with specific antibodies or control IgG; captured on Protein A/G agarose beads for 2 h at 4 °C, washed four times; Western blot

“Ring finger protein 213 (RNF213) (from UniProt Q63HN8 1-5207) (enzyme)” was tested. Which binding did it give?
Its binding is “binds”.
